Data as given in PubChem BioAssay AID602203 (INSERM, 2012).
Purpose: 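Genes whose knock-down alters cisplatin killing of lung cancer cells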 (follow-up of hits). System: human A549 lung cancer cells. Reagent: siRNA pair against human genes. Challenge: cisplatin at a dose killing half of control-siRNA cells, given 48 h after transfection. Measured: 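Two siRNAs per gene scored +1 protective, -1 sensitizing, 0 if toxic by LDH or growth-reducing by WST-1; cisplatin given 48 h later at 50% control kill; scores summed, mean death shift versus control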. Reading the numbers: summed siRNA score for cisplatin death: higher = more siRNAs reduced cisplatin-induced cell death; change in cisplatin death versus control: higher = fewer cells died than in control. Hit rule: In these data the active calls have summed siRNA score for cisplatin death at about -3 or lower, or at about 3 or higher.
In all, the deposit lists 999 reagents; shown is a random part of them. Of all reagents, 85 (8.5%) are marked active. 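Unclear how single-siRNA scores of -1, 0 or +1 give the printed -4 to 4 range; calls lie near -3 or 3 and beyond.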 Reagent sequences are not shown. Not given: the amount of reagent, the time to read-out, the dose of the treatment.

IKBKE
- summed siRNA score for cisplatin death: 0
- outcome: inactive

POLG2
- summed siRNA score for cisplatin death: 1
- outcome: inactive

LOC389873
- summed siRNA score for cisplatin death: 0
- outcome: inactive

LOC130865
- summed siRNA score for cisplatin death: 0
- outcome: inactive

SHROOM2
- summed siRNA score for cisplatin death: 2
- outcome: inactive

GRB7
- summed siRNA score for cisplatin death: -2
- outcome: inactive

CFAP46
- summed siRNA score for cisplatin death: -3
- change in cisplatin death versus control (percentage points): -11.6
- outcome: active

PHKG1
- summed siRNA score for cisplatin death: 1
- outcome: inactive

SLC27A1
- summed siRNA score for cisplatin death: -1
- outcome: inactive

SOCS6
- summed siRNA score for cisplatin death: 3
- change in cisplatin death versus control (percentage points): 17.1
- outcome: active

LOC440423
- summed siRNA score for cisplatin death: 1
- outcome: inactive

MYOG
- summed siRNA score for cisplatin death: -1
- outcome: inactive

LONRF2
- summed siRNA score for cisplatin death: -1
- outcome: inactive

LOC442022
- summed siRNA score for cisplatin death: 1
- outcome: inactive

P4HA3
- summed siRNA score for cisplatin death: -1
- outcome: inactive

LOC200213
- summed siRNA score for cisplatin death: 1
- outcome: inactive

COX10
- summed siRNA score for cisplatin death: 1
- outcome: inactive

GGA1
- summed siRNA score for cisplatin death: -2
- outcome: inactive

LOC391817
- summed siRNA score for cisplatin death: 1
- outcome: inactive

PPARD
- summed siRNA score for cisplatin death: 0
- outcome: inactive

CKAP2
- summed siRNA score for cisplatin death: -1
- outcome: inactive

SSTR5
- summed siRNA score for cisplatin death: 1
- outcome: inactive

LOC440224
- summed siRNA score for cisplatin death: 1
- outcome: inactive

SMURF1
- summed siRNA score for cisplatin death: -1
- outcome: inactive

SPMIP4
- summed siRNA score for cisplatin death: 1
- outcome: inactive

LOC202546
- summed siRNA score for cisplatin death: 0
- outcome: inactive

REEP4
- summed siRNA score for cisplatin death: 0
- outcome: inactive

TP53TG1
- summed siRNA score for cisplatin death: 2
- outcome: inactive

LOC442248
- summed siRNA score for cisplatin death: 1
- outcome: inactive

TCAIM
- summed siRNA score for cisplatin death: 1
- outcome: inactive

LOC392358
- summed siRNA score for cisplatin death: 1
- outcome: inactive

KCNJ2
- summed siRNA score for cisplatin death: -2
- outcome: inactive

TSTD2
- summed siRNA score for cisplatin death: 0
- outcome: inactive

LOC388205
- summed siRNA score for cisplatin death: 1
- outcome: inactive

LOC387705
- summed siRNA score for cisplatin death: 1
- outcome: inactive

PRSS21
- summed siRNA score for cisplatin death: -3
- change in cisplatin death versus control (percentage points): -9.37
- outcome: active

MXD1
- summed siRNA score for cisplatin death: -1
- outcome: inactive

CHEK2
- summed siRNA score for cisplatin death: 0
- outcome: inactive

LOC286561
- summed siRNA score for cisplatin death: -1
- outcome: inactive

PLEK
- summed siRNA score for cisplatin death: -1
- outcome: inactive

CER1
- summed siRNA score for cisplatin death: -1
- outcome: inactive

LOC440056
- summed siRNA score for cisplatin death: 3
- change in cisplatin death versus control (percentage points): 12.5
- outcome: active

SRPRB
- summed siRNA score for cisplatin death: 1
- outcome: inactive

MUC3B
- summed siRNA score for cisplatin death: 1
- outcome: inactive

PANK1
- summed siRNA score for cisplatin death: 1
- outcome: inactive

UNC13A
- summed siRNA score for cisplatin death: -1
- outcome: inactive

PUM1
- summed siRNA score for cisplatin death: 1
- outcome: inactive

In a second layout: results already given
{"gene":"LOC389873","summed siRNA score for cisplatin death":0,"outcome":"inactive"}
{"gene":"LOC130865","summed siRNA score for cisplatin death":0,"outcome":"inactive"}
{"gene":"SHROOM2","summed siRNA score for cisplatin death":2,"outcome":"inactive"}
{"gene":"GRB7","summed siRNA score for cisplatin death":-2,"outcome":"inactive"}
{"gene":"CFAP46","summed siRNA score for cisplatin death":-3,"change in cisplatin death versus control (percentage points)":-11.6,"outcome":"active"}
{"gene":"PHKG1","summed siRNA score for cisplatin death":1,"outcome":"inactive"}
